Data published in patent US20030139397A1, “Arthropodicidal carboxanilides” (priority 2002, published 2003).
Some entries share one result that the patent states for a list of compounds.

test system: fall armyworm (Spodoptera frugiperda); assay: TEST A: Fall Armyworm spray test; type: in vivo; conditions: third-instar larvae; spray at 0.138 kilograms of active ingredient per hectare; lima bean leaf cells read at 48 hours, diet cells at 6-8 days for delayed toxicity; 27° C., 50% relative humidity

With `CCCC12Cc3cc(C(F)(F)F)ccc3C1=NC(C(=O)Nc1ccc(Br)cc1)=NN2` (stereo not drawn) [Compound 4, N-(4-bromophenyl)-9,9α-dihydro-9α-propyl-7-(trifluoromethyl)-1H-indeno[1,2,-e]-1.2,4-triazine-3-carboxamide] as the molecule, how does the control efficacy levels read?
The control efficacy levels was ≥ 80%.

With `CCCC12Cc3cc(C(F)(F)F)ccc3C1=NC(C(=O)Nc1ccc(OC(F)(F)F)cc1)=NN2C` (stereo not drawn) [Compound 8] as the molecule, how does the control efficacy levels read?
Its control efficacy levels is ≥ 80%.

`O=C(Nc1ccc(SC(F)(F)F)cc1)C1=NNC2(c3ccc(F)cc3)Cc3cc(F)ccc3C2=N1` (stereo not drawn) [Compound 22] was tested. Which control efficacy levels did it give?
The control efficacy levels was ≥ 80%.

Which control efficacy levels does the source give for `CCCC12Cc3cc(C(F)(F)F)ccc3C1=NC(C(=O)Nc1ccc(C(F)(F)F)cc1)=NN2C(C)=O` (stereo not drawn) [Compound 11] here?
Its control efficacy levels is ≥ 80%.

Which control efficacy levels does the source give for `CCCC12Cc3cc(C(F)(F)F)ccc3C1=NC(C(=O)Nc1ccc(SC(F)(F)F)cc1)=NN2` (stereo not drawn) [Compound 21] here?
The control efficacy levels was ≥ 80%.

Which control efficacy levels does the source give for `COC(=O)N1N=C(C(=O)Nc2ccc(OC(F)(F)F)cc2)N=C2c3ccc(F)cc3CC21c1ccc(F)cc1` (stereo not drawn) [Compound 16] here?
The control efficacy levels was ≥ 80%.

For `CN1N=C(C(=O)Nc2ccc(OC(F)(F)F)cc2)N=C2c3ccc(F)cc3CC21C` (stereo not drawn) [Compound 17], which control efficacy levels is on record?
Its control efficacy levels is ≥ 80%.

With `CCCC12Cc3cc(C(F)(F)F)ccc3C1=NC(C(=O)Nc1ccc(C(F)(F)F)cc1)=NN2C` (stereo not drawn) [Compound 7] as the molecule, how does the control efficacy levels read?
Its control efficacy levels is ≥ 80%.

How did the control efficacy levels turn out when `O=C(Nc1ccc(OC(F)(F)F)cc1)C1=NNC2(c3ccc(F)cc3)Cc3cc(F)ccc3C2=N1` (stereo not drawn) [Compound 13] was run?
Its control efficacy levels is ≥ 80%.

How did the control efficacy levels turn out when `CN1N=C(C(=O)Nc2ccc(C(F)(F)F)cc2)N=C2c3ccc(C(F)(F)F)cc3CC21C` (stereo not drawn) [Compound 9] was run?
Its control efficacy levels is ≥ 80%.

How did the control efficacy levels turn out when `CN1N=C(C(=O)Nc2ccc(OC(F)(F)F)cc2)N=C2c3ccc(C(F)(F)F)cc3CC21C` (stereo not drawn) [Compound 10] was run?
Its control efficacy levels is ≥ 80%.

How did the control efficacy levels turn out when `CN1N=C(C(=O)Nc2ccc(C(F)(F)F)cc2)N=C2c3ccc(F)cc3CC21C` (stereo not drawn) [Compound 19] was run?
The control efficacy levels was ≥ 80%.

With `CCCC12Cc3cc(Cl)ccc3C1=NC(C(=O)Nc1ccc(Br)cc1)=NN2` (stereo not drawn) [Compound 2] as the molecule, how does the control efficacy levels read?
The control efficacy levels was ≥ 80%.

For `CCCC12Cc3cc(C(F)(F)F)ccc3C1=NC(C(=O)Nc1ccc(OC(F)(F)F)cc1)=NN2C(C)=O` (stereo not drawn) [Compound 12], which control efficacy levels is on record?
Its control efficacy levels is ≥ 80%.

For `CCCC12Cc3cc(C(F)(F)F)ccc3C1=NC(C(=O)Nc1ccc(OC(F)(F)F)cc1)=NN2` (stereo not drawn) [Compound 3, 9,9α-dihydro-9α-propyl-N-[4-(trifluoromethoxy)phenyl]-7-(trifluoromethyl)-1H-indeno[1,2-e]-1,2,4-triazine-3-carboxamide], which control efficacy levels is on record?
The control efficacy levels was ≥ 80%.

With `CCCC12Cc3cc(Cl)ccc3C1=NC(C(=O)Nc1ccc(C(F)(F)F)cc1)=NN2C` (stereo not drawn) [Compound 5] as the molecule, how does the control efficacy levels read?
The control efficacy levels was ≥ 80%.

`CCCC12Cc3cc(Cl)ccc3C1=NC(C(=O)Nc1ccc(OC(F)(F)F)cc1)=NN2` (stereo not drawn) [Compound 1, 7-chloro-9,9α-dihydro-9α-propyl-N-[4-(trifluoromethoxy)phenyl]-1H-indeno[1,2-e]-1,2,4-triazine-3-carboxamide] was tested. Which control efficacy levels did it give?
The control efficacy levels was ≥ 80%.

`CC(C)C12Cc3cc(Cl)ccc3C1=NC(C(=O)Nc1ccc(OC(F)(F)F)cc1)=NN2` (stereo not drawn) [Compound 15] was tested. Which control efficacy levels did it give?
Its control efficacy levels is ≥ 80%.

Which control efficacy levels does the source give for `CCCC12Cc3cc(Cl)ccc3C1=NC(C(=O)Nc1ccc(SC(F)(F)F)cc1)=NN2` (stereo not drawn) [Compound 20] here?
The control efficacy levels was ≥ 80%.

For `CCCC12Cc3cc(Cl)ccc3C1=NC(C(=O)Nc1ccc(OC(F)(F)F)cc1)=NN2C` (stereo not drawn) [Compound 6], which control efficacy levels is on record?
The control efficacy levels was ≥ 80%.

For `CC12Cc3cc(F)ccc3C1=NC(C(=O)Nc1ccc(OC(F)(F)F)cc1)=NN2` (stereo not drawn) [Compound 14], which control efficacy levels is on record?
Its control efficacy levels is ≥ 80%.
